Experimental data as given in the supplement of paper PMC10849652.
Some of the results follow.

The chains behind the UniProt entries cited, without tags or fusion partners. Where a name states a change or a piece, a line headed by the entry shows the natural chain unless it says otherwise.
UniProt Q92616, whole entry, looked up: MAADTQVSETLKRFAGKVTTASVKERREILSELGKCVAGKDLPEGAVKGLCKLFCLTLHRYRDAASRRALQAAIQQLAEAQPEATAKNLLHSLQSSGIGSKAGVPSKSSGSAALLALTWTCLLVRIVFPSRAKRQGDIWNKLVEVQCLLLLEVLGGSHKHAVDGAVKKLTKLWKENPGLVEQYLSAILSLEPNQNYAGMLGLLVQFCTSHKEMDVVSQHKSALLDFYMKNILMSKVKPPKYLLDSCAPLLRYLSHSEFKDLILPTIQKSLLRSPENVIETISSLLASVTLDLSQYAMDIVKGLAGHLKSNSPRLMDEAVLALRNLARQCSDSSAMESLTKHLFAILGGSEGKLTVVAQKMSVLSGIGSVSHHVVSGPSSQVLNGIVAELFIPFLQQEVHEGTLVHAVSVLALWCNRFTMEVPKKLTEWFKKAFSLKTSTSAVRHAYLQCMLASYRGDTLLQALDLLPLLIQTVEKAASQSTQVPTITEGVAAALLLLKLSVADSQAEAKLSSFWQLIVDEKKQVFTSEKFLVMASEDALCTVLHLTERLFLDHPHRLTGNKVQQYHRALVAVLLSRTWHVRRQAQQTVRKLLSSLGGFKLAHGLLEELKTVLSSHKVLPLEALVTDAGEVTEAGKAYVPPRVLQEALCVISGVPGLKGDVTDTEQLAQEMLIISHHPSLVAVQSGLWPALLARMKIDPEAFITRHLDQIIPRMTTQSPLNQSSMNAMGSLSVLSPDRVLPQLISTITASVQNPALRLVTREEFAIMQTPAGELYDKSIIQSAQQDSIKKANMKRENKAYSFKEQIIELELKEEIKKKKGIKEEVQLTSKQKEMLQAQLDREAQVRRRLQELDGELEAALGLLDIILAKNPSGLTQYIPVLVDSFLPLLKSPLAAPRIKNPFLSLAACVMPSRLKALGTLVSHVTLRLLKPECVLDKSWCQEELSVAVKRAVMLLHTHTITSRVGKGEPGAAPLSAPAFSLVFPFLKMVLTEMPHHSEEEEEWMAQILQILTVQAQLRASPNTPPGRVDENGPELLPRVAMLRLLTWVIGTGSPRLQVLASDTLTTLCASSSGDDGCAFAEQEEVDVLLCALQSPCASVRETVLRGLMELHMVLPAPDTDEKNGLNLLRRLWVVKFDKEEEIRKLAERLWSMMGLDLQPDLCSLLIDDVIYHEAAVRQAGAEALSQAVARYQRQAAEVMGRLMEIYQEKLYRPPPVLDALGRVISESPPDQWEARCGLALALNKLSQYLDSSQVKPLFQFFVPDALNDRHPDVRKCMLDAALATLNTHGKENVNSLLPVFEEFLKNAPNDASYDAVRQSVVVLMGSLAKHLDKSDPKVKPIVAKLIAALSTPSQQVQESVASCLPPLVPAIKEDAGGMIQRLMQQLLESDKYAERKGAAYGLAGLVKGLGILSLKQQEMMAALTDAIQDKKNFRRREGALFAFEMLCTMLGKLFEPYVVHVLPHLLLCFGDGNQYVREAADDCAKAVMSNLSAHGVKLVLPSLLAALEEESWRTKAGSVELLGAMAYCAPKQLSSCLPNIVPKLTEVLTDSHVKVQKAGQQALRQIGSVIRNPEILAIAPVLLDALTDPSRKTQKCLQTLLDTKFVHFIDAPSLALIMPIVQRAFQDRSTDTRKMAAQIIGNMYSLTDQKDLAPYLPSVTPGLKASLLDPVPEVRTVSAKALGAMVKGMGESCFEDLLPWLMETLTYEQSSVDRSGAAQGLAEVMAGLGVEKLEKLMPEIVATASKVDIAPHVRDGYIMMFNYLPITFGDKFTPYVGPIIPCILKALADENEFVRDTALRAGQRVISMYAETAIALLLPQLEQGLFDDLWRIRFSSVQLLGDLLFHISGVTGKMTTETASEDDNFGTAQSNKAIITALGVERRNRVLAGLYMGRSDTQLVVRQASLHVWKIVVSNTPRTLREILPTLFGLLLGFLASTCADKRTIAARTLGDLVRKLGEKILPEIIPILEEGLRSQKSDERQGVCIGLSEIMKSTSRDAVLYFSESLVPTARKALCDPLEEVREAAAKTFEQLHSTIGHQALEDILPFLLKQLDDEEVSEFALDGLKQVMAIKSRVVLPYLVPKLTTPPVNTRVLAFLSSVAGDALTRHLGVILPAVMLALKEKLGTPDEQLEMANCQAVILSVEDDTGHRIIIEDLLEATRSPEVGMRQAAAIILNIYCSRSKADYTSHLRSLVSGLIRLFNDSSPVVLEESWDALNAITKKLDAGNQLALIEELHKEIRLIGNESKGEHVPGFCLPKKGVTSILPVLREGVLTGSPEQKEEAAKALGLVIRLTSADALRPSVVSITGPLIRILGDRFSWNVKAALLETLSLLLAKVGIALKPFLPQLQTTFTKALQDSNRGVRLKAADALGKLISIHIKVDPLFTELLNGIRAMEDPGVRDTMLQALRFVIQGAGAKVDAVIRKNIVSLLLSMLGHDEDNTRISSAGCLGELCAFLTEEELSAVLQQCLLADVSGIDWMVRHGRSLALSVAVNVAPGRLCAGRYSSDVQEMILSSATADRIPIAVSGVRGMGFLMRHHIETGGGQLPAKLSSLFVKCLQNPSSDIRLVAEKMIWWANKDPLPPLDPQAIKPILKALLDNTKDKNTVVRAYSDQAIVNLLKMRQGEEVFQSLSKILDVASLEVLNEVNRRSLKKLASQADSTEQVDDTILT
UniProt O95749: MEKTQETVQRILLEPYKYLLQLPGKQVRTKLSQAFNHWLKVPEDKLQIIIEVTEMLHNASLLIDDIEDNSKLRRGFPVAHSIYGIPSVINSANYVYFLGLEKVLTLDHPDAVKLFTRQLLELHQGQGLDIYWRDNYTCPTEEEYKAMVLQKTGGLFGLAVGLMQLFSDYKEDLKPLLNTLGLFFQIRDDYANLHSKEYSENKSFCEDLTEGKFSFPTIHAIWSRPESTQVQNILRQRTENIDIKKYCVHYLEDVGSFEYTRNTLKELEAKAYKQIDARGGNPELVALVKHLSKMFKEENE
UniProt Q495W5: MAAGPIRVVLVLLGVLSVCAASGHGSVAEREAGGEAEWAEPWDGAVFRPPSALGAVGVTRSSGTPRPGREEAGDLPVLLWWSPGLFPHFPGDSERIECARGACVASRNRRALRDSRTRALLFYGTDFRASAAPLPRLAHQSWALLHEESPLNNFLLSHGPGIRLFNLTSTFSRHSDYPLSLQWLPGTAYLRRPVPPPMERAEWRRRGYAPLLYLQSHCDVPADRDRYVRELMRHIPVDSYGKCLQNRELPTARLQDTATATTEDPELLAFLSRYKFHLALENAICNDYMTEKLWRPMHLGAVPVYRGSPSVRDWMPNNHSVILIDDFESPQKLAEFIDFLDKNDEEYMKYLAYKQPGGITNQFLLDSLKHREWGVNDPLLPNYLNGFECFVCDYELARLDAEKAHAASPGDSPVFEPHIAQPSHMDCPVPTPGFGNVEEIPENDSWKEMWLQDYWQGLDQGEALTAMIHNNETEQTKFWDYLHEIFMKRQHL
UniProt Q13069: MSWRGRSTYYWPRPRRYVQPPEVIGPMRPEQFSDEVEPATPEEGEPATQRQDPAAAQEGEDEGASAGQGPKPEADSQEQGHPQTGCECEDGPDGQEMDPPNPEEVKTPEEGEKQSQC
UniProt Q9BQS8: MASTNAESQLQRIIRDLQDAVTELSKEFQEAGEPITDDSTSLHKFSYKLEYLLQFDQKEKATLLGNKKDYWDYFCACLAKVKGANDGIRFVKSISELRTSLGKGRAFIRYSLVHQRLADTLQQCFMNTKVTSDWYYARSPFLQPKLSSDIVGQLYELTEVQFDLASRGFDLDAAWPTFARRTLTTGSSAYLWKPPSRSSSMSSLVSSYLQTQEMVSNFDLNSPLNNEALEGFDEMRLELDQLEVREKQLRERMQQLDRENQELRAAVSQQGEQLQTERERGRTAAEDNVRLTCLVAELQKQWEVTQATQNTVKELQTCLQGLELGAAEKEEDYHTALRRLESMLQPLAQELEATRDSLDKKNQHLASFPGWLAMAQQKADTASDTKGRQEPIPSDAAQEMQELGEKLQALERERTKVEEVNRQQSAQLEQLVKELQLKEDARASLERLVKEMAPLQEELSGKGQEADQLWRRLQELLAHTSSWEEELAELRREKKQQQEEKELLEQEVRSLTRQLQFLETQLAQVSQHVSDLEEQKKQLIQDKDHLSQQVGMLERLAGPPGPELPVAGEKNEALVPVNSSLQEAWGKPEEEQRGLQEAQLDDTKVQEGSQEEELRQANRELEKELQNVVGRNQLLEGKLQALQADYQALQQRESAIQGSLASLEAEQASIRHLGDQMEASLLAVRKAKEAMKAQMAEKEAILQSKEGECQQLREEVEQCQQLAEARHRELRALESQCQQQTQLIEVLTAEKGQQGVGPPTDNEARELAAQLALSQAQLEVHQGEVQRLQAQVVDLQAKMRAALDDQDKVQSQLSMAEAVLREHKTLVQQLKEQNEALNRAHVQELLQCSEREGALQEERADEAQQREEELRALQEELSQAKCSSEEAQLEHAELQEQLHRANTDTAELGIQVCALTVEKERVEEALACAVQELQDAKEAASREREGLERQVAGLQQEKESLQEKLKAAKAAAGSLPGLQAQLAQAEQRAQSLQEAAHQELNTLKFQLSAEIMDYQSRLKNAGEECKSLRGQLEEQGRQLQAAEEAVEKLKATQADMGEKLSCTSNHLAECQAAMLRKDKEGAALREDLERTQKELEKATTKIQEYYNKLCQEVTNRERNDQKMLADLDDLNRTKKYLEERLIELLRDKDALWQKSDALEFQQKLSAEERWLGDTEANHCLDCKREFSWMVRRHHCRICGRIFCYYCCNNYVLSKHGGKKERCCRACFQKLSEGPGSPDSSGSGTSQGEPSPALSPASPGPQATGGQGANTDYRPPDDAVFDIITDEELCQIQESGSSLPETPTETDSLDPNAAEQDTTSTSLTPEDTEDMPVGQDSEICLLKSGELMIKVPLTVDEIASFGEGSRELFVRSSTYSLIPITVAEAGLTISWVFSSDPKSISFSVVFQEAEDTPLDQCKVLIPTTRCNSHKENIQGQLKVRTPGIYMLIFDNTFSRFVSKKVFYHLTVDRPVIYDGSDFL
UniProt Q9BWH2: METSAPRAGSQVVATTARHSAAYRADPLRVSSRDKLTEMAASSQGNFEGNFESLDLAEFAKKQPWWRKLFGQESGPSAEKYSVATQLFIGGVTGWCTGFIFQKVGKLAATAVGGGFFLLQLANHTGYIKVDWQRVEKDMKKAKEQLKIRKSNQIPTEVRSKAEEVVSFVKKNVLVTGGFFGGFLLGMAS
UniProt Q86SF2: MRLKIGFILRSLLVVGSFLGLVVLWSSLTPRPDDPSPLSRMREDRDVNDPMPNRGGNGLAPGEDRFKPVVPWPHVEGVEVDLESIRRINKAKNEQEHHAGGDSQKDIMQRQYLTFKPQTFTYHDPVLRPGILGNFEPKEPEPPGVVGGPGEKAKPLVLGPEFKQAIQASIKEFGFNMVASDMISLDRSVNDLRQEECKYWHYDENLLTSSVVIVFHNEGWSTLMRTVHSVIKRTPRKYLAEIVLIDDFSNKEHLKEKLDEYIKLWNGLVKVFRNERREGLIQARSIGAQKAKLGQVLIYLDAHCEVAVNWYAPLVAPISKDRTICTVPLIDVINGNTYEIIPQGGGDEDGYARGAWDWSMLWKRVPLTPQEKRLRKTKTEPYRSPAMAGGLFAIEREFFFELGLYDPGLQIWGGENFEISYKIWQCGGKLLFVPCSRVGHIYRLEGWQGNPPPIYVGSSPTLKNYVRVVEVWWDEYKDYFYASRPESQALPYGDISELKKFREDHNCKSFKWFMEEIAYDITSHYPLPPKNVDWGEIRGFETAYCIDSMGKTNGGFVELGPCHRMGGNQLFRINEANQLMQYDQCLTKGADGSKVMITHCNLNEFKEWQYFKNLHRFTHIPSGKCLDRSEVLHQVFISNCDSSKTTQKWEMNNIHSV
UniProt Q8IXK2: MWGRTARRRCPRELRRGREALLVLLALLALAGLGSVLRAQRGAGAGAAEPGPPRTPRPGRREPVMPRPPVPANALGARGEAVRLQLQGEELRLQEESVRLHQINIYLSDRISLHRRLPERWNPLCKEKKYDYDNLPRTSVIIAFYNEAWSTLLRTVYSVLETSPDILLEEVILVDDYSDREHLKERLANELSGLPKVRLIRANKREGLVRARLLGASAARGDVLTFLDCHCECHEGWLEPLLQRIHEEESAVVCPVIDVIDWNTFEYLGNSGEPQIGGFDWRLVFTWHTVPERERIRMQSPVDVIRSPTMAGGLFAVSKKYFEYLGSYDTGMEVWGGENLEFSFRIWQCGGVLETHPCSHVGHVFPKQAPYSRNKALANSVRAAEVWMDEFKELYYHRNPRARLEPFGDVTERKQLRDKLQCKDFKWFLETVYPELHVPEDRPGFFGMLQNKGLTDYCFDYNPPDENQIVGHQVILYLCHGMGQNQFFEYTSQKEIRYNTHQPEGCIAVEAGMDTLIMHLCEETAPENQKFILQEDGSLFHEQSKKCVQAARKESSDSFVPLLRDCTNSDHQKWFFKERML

What was measured:
Test in all cases: log2 fold change, soluble protein after heating vs DMSO (PISA); higher = thermal stabilisation; K562 cells, 10 uM, 30 min; active = over 0.2 and 3.5 SD of the protein, either way, in both replicates (recomputed)
[1] = compound: CS(=O)(=O)c1ccc(-c2cnc(N)c(C(=O)Nc3ccccc3)n2)cc1
Summary of the method: (§1)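 Soluble protein was defined as the supernatant after 21,000xg for 90 min. It came from K562 cells at 2×10^6 cells/mL given 10 μM compound for 30 min, heated in aliquots for 3 min across 48°C-58°C, pooled, and extracted in PBS with 0.5% NP-40 at 4°C, and was quantified by TMTpro 16plex LC-MS/MS with equalised channel sums. Thermal stability against control samples, from duplicates, is reported as log2 fold change.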

crizotinib = compound: C[C@@H](Oc1cc(-c2cnn(C3CCNCC3)c2)cnc1N)c1c(Cl)ccc(F)c1Cl [crizotinib]
Summary of the method: as §1

[2] = compound: C[C@@H]1COCCN1C2=NC(=NC(=C2)C3(CC3)S(=O)(=O)C)C4=C5C=CNC5=CC=C4
Summary of the method: as §1

[3] = compound: C[C@H](C1=CC=C(C=C1)C(=O)NC2=C3C=CNC3=NC=C2)N
Summary of the method: as §1

duvelisib = compound: C[C@H](Nc1ncnc2nc[nH]c12)c1cc2cccc(Cl)c2c(=O)n1-c1ccccc1 [duvelisib]
Summary of the method: as §1

gandotinib = compound: Cc1cc(Nc2cc(CN3CCOCC3)c3nc(C)c(Cc4ccc(Cl)cc4F)n3n2)n[nH]1 [gandotinib]
Summary of the method: as §1

tozasertib = compound: Cc1cc(Nc2cc(N3CCN(C)CC3)nc(Sc3ccc(NC(=O)C4CC4)cc3)n2)n[nH]1 [tozasertib]
Summary of the method: as §1

[4] = compound: Cc1cc(SCc2sc(-c3ccc(C(F)(F)F)cc3)nc2C)ccc1OCC(=O)O
Summary of the method: as §1

doramapimod = compound: Cc1ccc(-n2nc(C(C)(C)C)cc2NC(=O)Nc2ccc(OCCN3CCOCC3)c3ccccc23)cc1 [doramapimod]
Summary of the method: as §1

ispinesib = compound: Cc1ccc(C(=O)N(CCCN)[C@@H](c2nc3cc(Cl)ccc3c(=O)n2Cc2ccccc2)C(C)C)cc1 [ispinesib]
Summary of the method: as §1

bafetinib = compound: Cc1ccc(NC(=O)c2ccc(CN3CC[C@H](N(C)C)C3)c(C(F)(F)F)c2)cc1Nc1nccc(-c2cncnc2)n1 [bafetinib]
Summary of the method: as §1

[5] = compound: Cc1cccc(CC(=O)N2CCc3c2ccc(-c2cn(C)c4ncnc(N)c24)c3F)n1
Summary of the method: as §1

nilotinib = compound: Cc1cn(-c2cc(NC(=O)c3ccc(C)c(Nc4nccc(-c5cccnc5)n4)c3)cc(C(F)(F)F)c2)cn1 [nilotinib]
Summary of the method: as §1

[6] = compound: Cc1nc(Nc2n[nH]c3c2CN(C(=O)N[C@H](CN(C)C)c2ccccc2)C3(C)C)c2sccc2n1
Summary of the method: as §1

dasatinib = compound: Cc1nc(Nc2ncc(C(=O)Nc3c(C)cccc3Cl)s2)cc(N2CCN(CCO)CC2)n1 [dasatinib]
Summary of the method: as §1

[7] = compound: Cc1ncc(-c2ccnc(Nc3ccc(S(C)(=O)=O)cc3)n2)n1C(C)C
Summary of the method: as §1

[8] = compound: Cn1cc(-c2ccc3c(c2)CCN3C(=O)Cc2cccc(C(F)(F)F)c2)c2c(N)ncnc21
Summary of the method: as §1

[9] = compound: Cn1cc(-c2ccc3nnc(C(F)(F)c4ccc5ncccc5c4)n3n2)cn1
Summary of the method: as §1

tipifarnib = compound: Cn1cncc1[C@@](N)(c1ccc(Cl)cc1)c1ccc2c(c1)c(-c1cccc(Cl)c1)cc(=O)n2C [tipifarnib]
Summary of the method: as §1

mubritinib = compound: FC(F)(F)c1ccc(/C=C/c2nc(COc3ccc(CCCCn4ccnn4)cc3)co2)cc1 [mubritinib]
Summary of the method: as §1

Measured: log2 fold change

GCN1 (UniProt Q92616)
inactive: [1] 0.125 | crizotinib -0.135 | [2] -0.421 | [3] 0.646 | duvelisib -0.241 | gandotinib 0.11 | tozasertib 0.019 | [4] 0.169 | doramapimod 0.39 | ispinesib -0.382 | bafetinib 0.185 | [5] 0.003 | nilotinib -0.031 | [6] -0.06 | dasatinib 0.078 | [7] 0.03 | [8] -0.315 | [9] -0.21 | tipifarnib 0.023 | mubritinib -0.255

GGPS1 (UniProt O95749)
inactive: [1] -0.005 | crizotinib 0.04 | [2] 0.001 | [3] 0.031 | duvelisib 0.062 | gandotinib -0.083 | tozasertib -0.041 | [4] -0.041 | doramapimod 0.011 | ispinesib 0 | bafetinib -0.015 | [5] -0.151 | nilotinib -0.008 | [6] 0.012 | dasatinib 0.088 | [7] -0.01 | [8] -0.063 | [9] 0.014 | tipifarnib 0.05 | mubritinib 0

FRYL (UniProt O94915)
inactive: [1] 0.022 | crizotinib -0.016 | [2] 0.01 | [3] 0.039 | duvelisib -0.032 | gandotinib -0.011 | tozasertib 0.02 | [4] 0.054 | doramapimod 0.057 | ispinesib -0.004 | bafetinib 0.064 | [5] 0.029 | nilotinib 0.002 | [6] 0.015 | dasatinib -0.042 | [7] -0.021 | [8] -0.063 | [9] -0.013 | tipifarnib 0.028 | mubritinib 0.034

GART (UniProt C9JZG2)
inactive: [1] -0.015 | crizotinib -0.08 | [2] -0.032 | [3] 0.152 | duvelisib 0.188 | gandotinib -0.28 | tozasertib -0.186 | [4] -0.065 | doramapimod 0.149 | ispinesib -0.257 | bafetinib 0.13 | [5] -0.019 | nilotinib -0.094 | [6] 0.042 | dasatinib -0.039 | [7] -0.067 | [8] 0.092 | [9] 0.162 | tipifarnib -0.001 | mubritinib 0.08

FUT11 (UniProt Q495W5)
inactive: [1] -0.056 | crizotinib 0.067 | [2] 0.009 | [3] -0.043 | duvelisib 0.046 | gandotinib -0.001 | tozasertib 0.063 | [4] -0.053 | doramapimod 0.022 | ispinesib 0.034 | bafetinib -0.127 | [5] -0.069 | nilotinib -0.084 | [6] 0.274 | dasatinib 0.069 | [7] -0.004 | [8] -0.131 | [9] 0.019 | tipifarnib 0.088 | mubritinib 0.029

Two records drawn at random from those above:
GART (UniProt C9JZG2)
inactive: [1] -0.015 | crizotinib -0.08 | [2] -0.032 | [3] 0.152 | duvelisib 0.188 | gandotinib -0.28 | tozasertib -0.186 | [4] -0.065 | doramapimod 0.149 | ispinesib -0.257 | bafetinib 0.13 | [5] -0.019 | nilotinib -0.094 | [6] 0.042 | dasatinib -0.039 | [7] -0.067 | [8] 0.092 | [9] 0.162 | tipifarnib -0.001 | mubritinib 0.08

GGPS1 (UniProt O95749)
inactive: [1] -0.005 | crizotinib 0.04 | [2] 0.001 | [3] 0.031 | duvelisib 0.062 | gandotinib -0.083 | tozasertib -0.041 | [4] -0.041 | doramapimod 0.011 | ispinesib 0 | bafetinib -0.015 | [5] -0.151 | nilotinib -0.008 | [6] 0.012 | dasatinib 0.088 | [7] -0.01 | [8] -0.063 | [9] 0.014 | tipifarnib 0.05 | mubritinib 0

The list goes on.

GCLC (UniProt P48506)
inactive: [1] 0.047 | crizotinib -0.015 | [2] 0.102 | [3] 0.013 | duvelisib 0.041 | gandotinib -0.014 | tozasertib -0.033 | [4] -0.003 | doramapimod -0.015 | ispinesib -0.022 | bafetinib -0.033 | [5] -0.035 | nilotinib -0.015 | [6] -0.013 | dasatinib -0.051 | [7] 0.003 | [8] -0.002 | [9] 0.032 | tipifarnib -0.018 | mubritinib 0.055

GAGE5 (UniProt Q13069)
inactive: [1] 0.005 | crizotinib 0.157 | [2] 0.145 | [3] -0.034 | duvelisib 0.042 | gandotinib 0.075 | tozasertib -0.01 | [4] -0.092 | doramapimod 0.023 | ispinesib 0.025 | bafetinib -0.142 | [5] -0.122 | nilotinib 0.028 | [6] -0.024 | dasatinib 0.035 | [7] 0.006 | [8] 0.059 | [9] 0.053 | tipifarnib 0.107 | mubritinib 0.044

FYCO1 isoform 4 (UniProt Q9BQS8)
inactive: [1] -0.063 | crizotinib -0.143 | [2] -0.035 | [3] 0.092 | duvelisib 0.073 | gandotinib 0.069 | tozasertib 0.012 | [4] 0.041 | doramapimod 0.063 | ispinesib -0.011 | bafetinib -0.105 | [5] -0.052 | nilotinib -0.014 | [6] -0.13 | dasatinib -0.249 | [7] 0.075 | [8] 0.028 | [9] 0.034 | tipifarnib 0.012 | mubritinib -0.087

FUNDC2 (UniProt Q9BWH2)
inactive: [1] 0.032 | crizotinib 0.062 | [2] 0.033 | [3] -0.004 | duvelisib 0.045 | gandotinib -0.063 | tozasertib -0.017 | [4] 0.019 | doramapimod -0.015 | ispinesib -0.031 | bafetinib -0.075 | [5] -0.008 | nilotinib -0.031 | [6] 0.03 | dasatinib 0.089 | [7] -0.032 | [8] 0.028 | [9] 0.064 | tipifarnib 0.158 | mubritinib 0.021

GGCT (UniProt O75223)
inactive: [1] 0.069 | crizotinib -0.017 | [2] 0.033 | [3] -0.091 | duvelisib 0.051 | gandotinib -0.046 | tozasertib 0.006 | [4] 0.002 | doramapimod -0.027 | ispinesib 0.027 | bafetinib 0.005 | [5] 0.017 | nilotinib 0.028 | [6] 0.013 | dasatinib -0.017 | [7] -0.004 | [8] 0.08 | [9] -0.001 | tipifarnib -0.039 | mubritinib -0.005

FURIN (UniProt P09958)
inactive: [1] 0.043 | crizotinib -0.285 | [2] -0.027 | [3] -0.003 | duvelisib 0.005 | gandotinib -0.009 | tozasertib 0.013 | [4] -0.054 | doramapimod -0.033 | ispinesib -0.125 | bafetinib -0.008 | [5] -0.015 | nilotinib -0.041 | [6] -0.058 | dasatinib 0.043 | [7] 0.023 | [8] -0.001 | [9] 0.032 | tipifarnib 0.101 | mubritinib -0.08

GALNT7 (UniProt Q86SF2)
inactive: [1] 0.044 | crizotinib 0.026 | [2] 0.017 | [3] -0.049 | duvelisib 0.021 | gandotinib -0.02 | tozasertib 0.004 | [4] 0.004 | doramapimod -0.033 | ispinesib 0.031 | bafetinib -0.041 | [5] 0.043 | nilotinib 0.001 | [6] -0.03 | dasatinib -0.084 | [7] 0.017 | [8] 0.034 | [9] -0.007 | tipifarnib -0.032 | mubritinib 0.045

GFER (UniProt P55789)
inactive: [1] -0.004 | crizotinib 0.109 | [2] -0.099 | [3] -0.135 | duvelisib -0.022 | gandotinib -0.094 | tozasertib 0 | [4] 0.005 | doramapimod -0.067 | ispinesib 0.018 | bafetinib -0.071 | [5] 0.027 | nilotinib 0.013 | [6] 0.061 | dasatinib -0.043 | [7] 0.018 | [8] -0.01 | [9] 0.086 | tipifarnib 0.029 | mubritinib 0.022

G3BP1 (UniProt Q13283)
inactive: [1] -0.038 | crizotinib -0.029 | [2] -0.389 | [3] 0.184 | duvelisib -0.09 | gandotinib 0.148 | tozasertib 0.004 | [4] 0.018 | doramapimod 0.064 | ispinesib -0.084 | bafetinib 0.104 | [5] -0.027 | nilotinib 0 | [6] 0.072 | dasatinib 0.026 | [7] 0.017 | [8] -0.107 | [9] -0.097 | tipifarnib 0.053 | mubritinib -0.05

GALNT12 (UniProt Q8IXK2)
inactive: [1] -0.052 | crizotinib -0.089 | [2] 0.015 | [3] 0.035 | duvelisib -0.024 | gandotinib 0.047 | tozasertib 0.023 | [4] 0.21 | doramapimod 0.008 | ispinesib -0.028 | bafetinib 0.009 | [5] 0.022 | dasatinib -0.182 | [8] -0.072 | [9] -0.021 | tipifarnib -0.009 | mubritinib -0.124

GFM1 (UniProt Q96RP9)
inactive: [1] 0.055 | crizotinib -0.068 | [2] 0.117 | [3] -0.017 | duvelisib 0.047 | gandotinib -0.075 | tozasertib -0.005 | [4] 0.06 | doramapimod -0.069 | ispinesib -0.074 | bafetinib 0.023 | [5] -0.001 | nilotinib 0.01 | [6] -0.047 | dasatinib -0.165 | [7] -0.06 | [8] 0.109 | [9] 0.063 | tipifarnib -0.065 | mubritinib -0.085
